Results reported in PMC10759449.
Results are given in words; binding and its absence hold for the method and conditions named. Binding seen in cells or lysates may run through a third protein. Some binding calls cover weakened binding; strength is not graded here.

Sequences of proteins named here, by UniProt entry; tags and fusion partners are left off.
UniProt Q86VP1: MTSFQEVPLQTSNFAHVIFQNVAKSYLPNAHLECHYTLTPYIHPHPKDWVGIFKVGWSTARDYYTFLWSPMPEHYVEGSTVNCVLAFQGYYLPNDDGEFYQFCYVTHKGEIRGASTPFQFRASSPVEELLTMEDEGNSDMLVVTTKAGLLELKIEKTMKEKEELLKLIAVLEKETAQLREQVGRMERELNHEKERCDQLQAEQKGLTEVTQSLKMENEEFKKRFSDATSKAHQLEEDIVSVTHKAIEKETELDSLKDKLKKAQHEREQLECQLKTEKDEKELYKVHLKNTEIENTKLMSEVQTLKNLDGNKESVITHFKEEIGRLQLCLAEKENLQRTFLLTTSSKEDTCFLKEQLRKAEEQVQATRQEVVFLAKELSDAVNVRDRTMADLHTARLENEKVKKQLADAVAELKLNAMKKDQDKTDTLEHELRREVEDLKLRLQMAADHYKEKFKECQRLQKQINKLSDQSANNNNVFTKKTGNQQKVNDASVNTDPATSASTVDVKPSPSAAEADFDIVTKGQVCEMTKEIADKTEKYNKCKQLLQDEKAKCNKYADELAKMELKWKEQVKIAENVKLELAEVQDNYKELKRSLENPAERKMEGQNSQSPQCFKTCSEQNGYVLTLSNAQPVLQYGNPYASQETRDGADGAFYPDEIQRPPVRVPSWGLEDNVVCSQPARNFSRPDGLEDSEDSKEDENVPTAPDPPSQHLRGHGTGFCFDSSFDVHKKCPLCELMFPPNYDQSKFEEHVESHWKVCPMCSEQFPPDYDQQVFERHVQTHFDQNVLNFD

Molecular target: Tax1 binding protein 1 (human (endogenous in TNBC cells)) (UniProt Q86VP1)
Assay: co-IP; cell lysates of TNBC cells, immunoprecipitation with anti-PDIA4 or anti-TAX1BP1 antibody and protein A/G agarose beads, detection by Western blot

binding: binds
B1: Protein disulfide isomerase family member 4 (protein, UniProt P13667 21-645)
chain: VAGAEGPDEDSSNRENAIEDEEEEEEEDDDEEEDDLEVKEENGVLVLNDANFDNFVADKDTVLLEFYAPWCGHCKQFAPEYEKIANILKDKDPPIPVAKIDATSASVLASRFDVSGYPTIKILKKGQAVDYEGSRTQEEIVAKVREVSQPDWTPPPEVTLVLTKENFDEVVNDADIILVEFYAPWCGHCKKLAPEYEKAAKELSKRSPPIPLAKVDATAETDLAKRFDVSGYPTLKIFRKGRPYDYNGPREKYGIVDYMIEQSGPPSKEILTLKQVQEFLKDGDDVIIIGVFKGESDPAYQQYQDAANNLREDYKFHHTFSTEIAKFLKVSQGQLVVMQPEKFQSKYEPRSHMMDVQGSTQDSAIKDFVLKYALPLVGHRKVSNDAKRYTRRPLVVVYYSVDFSFDYRAATQFWRSKVLEVAKDFPEYTFAIADEEDYAGEVKDLGLSESGEDVNAAILDESGKKFAMEPEEFDSDTLREFVTAFKKGKLKPVIKSQPVPKNNKGPVKVVVGKTFDSIVMDPKKDVLIEFYAPWCGHCKQLEPVYNSLAKKYKGQKGLVIAKMDATANDVPSDRYKVEGFPTIYFAPSGDKKNPVKFEGGDRDLEHLSKFIEEHATKLSRTKEEL
